# Data published in PubChem BioAssay AID330 (DTP/NCI, 2004).
# The list is a part of this screen's results and no random one: it is rich in T/C values a quarter to a half above the control, in often repeated tests (any T/C) and in doses without a T/C. Other doses and runs of a compound stand elsewhere. T/C: endpoint of the treated group in % of that of the vehicle group. Some doses have a count of surviving animals in place of a T/C: the source holds a T/C of zero for them, seemingly a mark for toxic or unscored doses. Some survivor counts are full or nearly so, which does not show that the dose was tolerated: survival well below the control is almost never listed, so the zero probably covers shortened survival too. Counts of survivors are from the toxicity check (mostly the fifth day) where no day follows; animals may have died later. Schedule codes are those of the source, read here as Q, the interval in days (D) or hours (H), X, the number of doses. Some structures stand for samples that the source files as different forms (salt, stereo form or complex); doses refer to the form tested. Marks such as (2×) give the number of equal values in this list. Some entries were tested several times; the results are listed from low to high. For survival time, the PubChem record calls one and a half times the control and up active, and a quarter to a half above the control has no call in these data; cut-offs in other NCI protocols can differ. Some T/C values are followed by the survivors on the day toxicity was checked, most often the fifth; without a count, all were alive then.
# Tested on: P388 leukemia ip, CD2F1 mice, survival T/C
# Test: NCI In Vivo Anticancer Drug Screen. Data for tumor model P388 Leukemia (intraperitoneal) in CD2F1 (CDF1) mice
# Conditions: T/C endpoint: median survival time, higher T/C = longer survival
# [1] = dose: 200.0 mg/kg/injection, schedule: Q01DX009 (ip), vehicle: saline
# [2] = dose: 25.0 mg/kg/injection, schedule: Q01DX009 (ip), vehicle: Klucel (hydroxypropylcellulose) (HPC)
# [3] = dose: 100.0 mg/kg/injection, schedule: Q01DX009 (ip), vehicle: Klucel (hydroxypropylcellulose) (HPC)
# [4] = dose: 200.0 mg/kg/injection, schedule: Q01DX009 (ip), vehicle: Klucel (hydroxypropylcellulose) (HPC)
# [5] = dose: 50.0 mg/kg/injection, schedule: Q01DX009 (ip), vehicle: Klucel (hydroxypropylcellulose) (HPC)
# [6] = dose: 50.0 mg/kg/injection, schedule: Q01DX009 (ip), vehicle: saline with Tween-80
# [7] = dose: 100.0 mg/kg/injection, schedule: Q01DX009 (ip), vehicle: saline with Tween-80
# [8] = dose: 100.0 mg/kg/injection, schedule: Q01DX005 (ip), vehicle: Klucel (hydroxypropylcellulose) (HPC)
# [9] = dose: 200.0 mg/kg/injection, schedule: Q01DX005 (ip), vehicle: Klucel (hydroxypropylcellulose) (HPC)
# [10] = dose: 200.0 mg/kg/injection, schedule: Q01DX009 (ip), vehicle: saline with Tween-80
# [11] = dose: 77.0 mg/kg/injection, schedule: Q01DX005 (ip), vehicle: saline
smiles,measurement,setting,value
COc1cccc2c1C(=O)c1c(O)c3c(c(O)c1C2=O)C[C@@](O)(CO)C[C@@H]3OC1CC(N)C(O)C(C)O1 (some centres not stated),T/C,"dose: 0.2 mg/kg/injection, schedule: Q01DX009 (ip), vehicle: water",135 % of control
same,T/C,"dose: 0.39 mg/kg/injection, schedule: Q01DX009 (ip), vehicle: water",137 % of control
same,survivor count,"dose: 6.25 mg/kg/injection, schedule: Q01DX009 (ip), vehicle: water",6 of 6
same,T/C,"dose: 9.0 mg/kg/injection, schedule: Q04DX003 (ip), vehicle: water",143 % of control
same,survivor count,"dose: 12.5 mg/kg/injection, schedule: Q01DX009 (ip), vehicle: water",3 of 6
same,survivor count,"dose: 25.0 mg/kg/injection, schedule: Q01DX009 (ip), vehicle: water",0 of 6
OC1COCCC(O)(CNCc2ccccc2)C1O (configuration not stated),survivor count,[1],3 of 6
C=CCNSc1cccc([N+](=O)[O-])c1,T/C,"dose: 12.5 mg/kg/injection, schedule: Q01DX009 (ip), vehicle: Klucel (hydroxypropylcellulose) (HPC)",129 % of control
same,T/C,[2],126 % of control
same,survivor count,[3],0 of 6
same,survivor count,[4],0 of 6
CSCCCNCc1ccccc1,survivor count,"dose: 200.0 mg/kg/injection, schedule: Q01DX005 (ip), vehicle: saline",0 of 6
C=CCSc1nc2ccc(NC(C)=O)cc2s1,survivor count,[5],6 of 6
same,survivor count,[3],6 of 6
same,survivor count,[4],6 of 6
CN1CCCN(C(c2ccccc2)c2ccc(Cl)cc2)CC1 (configuration not stated),T/C,[6],125 % of control
same,survivor count,[7],1 of 6
COc1ccc2c(c1)C(c1cccc3ccccc13)OC2=O (configuration not stated),survivor count,[8],6 of 6
same,survivor count,[9],6 of 6
NC(N)=NCC1CCCCCCN1 (configuration not stated),survivor count,"dose: 50.0 mg/kg/injection, schedule: Q01DX009 (ip), vehicle: saline",1 of 6
same,survivor count,[1],3 of 6
O=C1N2CCNc3ccccc3C(c3ccccc3)N1CC2 (configuration not stated),survivor count,"dose: 50.0 mg/kg/injection, schedule: Q01DX005 (ip), vehicle: Klucel (hydroxypropylcellulose) (HPC)",0 of 6
same,survivor count,[8],0 of 6
same,survivor count,[9],0 of 6
O=c1[nH]ncc(=S)[nH]1,survivor count,"dose: 200.0 mg/kg/injection, schedule: Q01DX009 (ip), vehicle: suspension in saline",6 of 6
CCN1CCCC(Nc2cc(C)nc(Nc3nc4cc(Cl)c(Cl)cc4[nH]3)n2)C1 (configuration not stated),survivor count,[2],2 of 6
same,survivor count,[5],0 of 6
COC1=C(OC)C(=O)C(Sc2ccc3ccccc3c2)=CC1=O,survivor count,[6],3 of 6
same,survivor count,[7],0 of 6 and 3 of 6
same,survivor count,[10],0 of 6
O=C1c2ccccc2C(=O)c2c(Cl)cccc21,survivor count,[7],6 of 6
same,survivor count,[10],6 of 6
same,survivor count,"dose: 400.0 mg/kg/injection, schedule: Q01DX009 (ip), vehicle: saline with Tween-80",6 of 6
COC1/C=C/OC2(C)Oc3c(C)c(O)c4c(O)c(c(/C=N/N5C(C)CN(Cc6ccc([N+](=O)[O-])cc6)CC5C)c(O)c4c3C2=O)NC(=O)/C(C)=C\C=C\C(C)C(O)C(C)C(O)C(C)C(OC(C)=O)C1C (configuration not stated),T/C,[7],126 % of control
same,survivor count,[10],1 of 6 and 5 of 6
Cc1cc(O)ccc1Nc1ccc(N(CCCl)CCCl)cc1,T/C,"dose: 100.0 mg/kg/injection, schedule: Q04DX003 (ip), vehicle: Klucel (hydroxypropylcellulose) (HPC)",148 % of control
O=C(NCCCl)Oc1ccc(Cl)cc1Cl,survivor count,[8],6 of 6
same,survivor count,[9],6 of 6
CNC(=O)OCc1nc(SC)n(C)c1COC(=O)NC,T/C,"dose: 6.25 mg/kg/injection, schedule: Q01DX005 (ip), vehicle: saline",125 % of control [5 of 6 alive]
same,T/C,"dose: 12.5 mg/kg/injection, schedule: Q01DX005 (ip), vehicle: saline",144 and 147 % of control
same,T/C,"dose: 25.0 mg/kg/injection, schedule: Q01DX005 (ip), vehicle: saline",147 % of control
same,T/C,"dose: 40.0 mg/kg/injection, schedule: Q01DX005 (ip), vehicle: saline, evaluated on day 45",170 and 186 % of control
same,T/C,"dose: 40.0 mg/kg/injection, schedule: Q01DX005 (ip), vehicle: saline, evaluated on day 46",166 % of control
same,T/C,"dose: 40.0 mg/kg/injection, schedule: Q01DX005 (ip), vehicle: saline, evaluated on day 47","169, 192, 217 % of control"
same,T/C,"dose: 40.0 mg/kg/injection, schedule: Q01DX005 (ip), vehicle: saline, evaluated on day 48",172 % of control
same,T/C,"dose: 40.0 mg/kg/injection, schedule: Q01DX005 (ip), vehicle: saline, evaluated on day 60",197 % of control
same,T/C,"dose: 50.0 mg/kg/injection, schedule: Q01DX005 (ip), vehicle: saline, evaluated on day 45",175 and 202 % of control
same,T/C,"dose: 50.0 mg/kg/injection, schedule: Q01DX005 (ip), vehicle: saline, evaluated on day 46",191 % of control
same,T/C,"dose: 50.0 mg/kg/injection, schedule: Q01DX005 (ip), vehicle: saline, evaluated on day 47","182 [9 of 10 alive], 195, 221 % of control"
same,T/C,"dose: 50.0 mg/kg/injection, schedule: Q01DX005 (ip), vehicle: saline, evaluated on day 48",187 % of control
same,T/C,"dose: 50.0 mg/kg/injection, schedule: Q01DX005 (ip), vehicle: saline, evaluated on day 60",203 % of control
same,T/C,"dose: 65.0 mg/kg/injection, schedule: Q01DX005 (ip), vehicle: saline, evaluated on day 45",193 and 217 % of control
same,T/C,"dose: 65.0 mg/kg/injection, schedule: Q01DX005 (ip), vehicle: saline, evaluated on day 46",200 % of control
same,T/C,"dose: 65.0 mg/kg/injection, schedule: Q01DX005 (ip), vehicle: saline, evaluated on day 47","198, 209, 221 % of control"
same,T/C,"dose: 65.0 mg/kg/injection, schedule: Q01DX005 (ip), vehicle: saline, evaluated on day 48",181 % of control
same,T/C,"dose: 65.0 mg/kg/injection, schedule: Q01DX005 (ip), vehicle: saline, evaluated on day 60",231 % of control
same,T/C,[11],132 % of control
same,survivor count,[11],10 of 10
same,T/C,"dose: 80.0 mg/kg/injection, schedule: Q01DX005 (ip), vehicle: saline, evaluated on day 45",126 and 205 % of control
same,T/C,"dose: 80.0 mg/kg/injection, schedule: Q01DX005 (ip), vehicle: saline, evaluated on day 47",161 % of control
same,T/C,"dose: 80.0 mg/kg/injection, schedule: Q01DX005 (ip), vehicle: saline, evaluated on day 60",213 % of control
same,survivor count,"dose: 80.0 mg/kg/injection, schedule: Q01DX005 (ip), vehicle: saline",10 of 10 (3×)
same,survivor count,"dose: 100.0 mg/kg/injection, schedule: Q01DX005 (ip), vehicle: saline",6 of 6
same,survivor count,"dose: 115.0 mg/kg/injection, schedule: Q01DX005 (ip), vehicle: saline",10 of 10 (3×)
same,survivor count,"dose: 172.0 mg/kg/injection, schedule: Q01DX005 (ip), vehicle: saline",9 of 10
CN(C)CCCNc1ccc2ccc3c(NCCCN(C)C)ccc4ccc1c2c43,survivor count,[4],0 of 6
O=C(c1cc(Nc2ccnc3cc(Cl)ccc23)ccc1O)N1CCCCC1,T/C,"dose: 50.0 mg/kg/injection, schedule: Q01DX005 (ip), vehicle: saline with Tween-80",125 % of control
C[C@]12CCC(=O)C=C1CC[C@@H]1[C@@H]2C(=O)C[C@@]2(C)[C@H]1CC[C@]2(O)C(=O)C=O,T/C,[2],128 % of control
same,T/C,[5],128 % of control
same,survivor count,[3],3 of 6
same,survivor count,[4],0 of 6
CC1=NOC(=O)C1N=Nc1ccc(Br)cc1C (configuration not stated),survivor count,"dose: 400.0 mg/kg/injection, schedule: Q05DX002 (ip), vehicle: saline with Tween-80",4 of 6
CN1CCC23c4c5ccc(O)c4OC2C(O)C=CC3C1C5 (configuration not stated),T/C,"dose: 256.0 mg/kg/injection, schedule: Q01DX009 (ip), vehicle: saline",125 % of control
O=C1C=CC(=O)C(c2ccc(Cl)cc2)=C1,survivor count,[6],4 of 6
O=C(NCCCN1CC1)C(=O)NCCCN1CC1,survivor count,"dose: 6.25 mg/kg/injection, schedule: Q01DX009 (ip), vehicle: saline",5 of 6
O=C(Sc1ccccc1)C1CC=CCC1 (configuration not stated),survivor count,[4],0 of 6
C[n+]1ccccc1-c1ccc[n+](CCCC[n+]2cccc(-c3cccc[n+]3C)c2)c1,survivor count,"dose: 240.0 mg/kg/injection, schedule: Q01DX005 (ip), vehicle: saline with Tween-80",3 of 6
